Measured values: patent US6344217B1, “Putamen OVI” (priority 1994, dated 2002)

Experiments:
Male Wistar rats [1] = assay: Clinical-chemical serum parameters after 7-day treatment of rats; format: in vivo, rat; settings: change vs control (=100%), 7 days intragastral
Experimental: (§1) Male Wistar rats having an average body weight of 322.5 g were kept under conventional conditions at a room temperature of 21±1° C., a relative atmospheric humidity of about 60% and a 12 hour day/night cycle. Prior to the start of the experiment, they where subjected to an acclimatization to those keeping conditions for 12 days.
(§2) Feeding was performed with the pelletized standard diet Altromin C 1000, Misch. Nr. 100 (Altrogge). The animals were given tap water ad libidum as drinking water.
1. […]
Parameters such as enzymes, glucose, lipids, electrolytes, creatinin, urea and protein are detected selectively, method-oriented, photometrically or ion-selectively using the analyzer Cobas Mira. […]
The following clinical-chemical metabolic measurement values were analyzed in a combined method-specific manner: Bilirubin, creatinin, urea, glutamate oxalacetate transaminase (GOT), glutamate pyruvate transaminase (GPT), gamma-glutamyl transferase (GGT), glucose, cholesterol, triglycerides, calcium, sodium, potassium, chloride and total protein. […]

Male Wistar rats [2] = assay: Leucocyte/lymphocyte differentiation by flow cytometry after 7-day treatment of rats; format: in vivo, rat; settings: change vs control (=100%), 7th day of treatment, peripheral blood
Experimental: as §1, §2
1. Coated tablet core granules, micronized with putamen ovi; 1 coated tablet core aar® os with 640 mg contains 440 mg of putamen ovi, micronized, corresponding to 160 mg of calcium; Dosage form: Putamen ovi, coated tablet core granules, 146 mg (≡100 mg of putamen ovi, micronized≈36.5 mg of Ca) is suspended in 2 ml of dist. water (POS), 0.5 ml (POS)≡9.125 mg of Ca (PO)/[…]
The suspension were freshly prepared immediately before the administration and homogeneously administered. […]
The lymphocyte differentiation was performed after specific monoclonal incubation by means of fluorescence-activated cell sorting (fluorescence measurement).
On the 7th day of treatment, there were analyzed quantitatively: […]
5 μl each of the antibodies is incubated with 50 μl of Na-EDTA-blood at room temperature in the dark for 20 min. […] The suspension is analyzed by means of the flow cytometer. […]

Structure (SMILES): NS(=O)(=O)c1cc(C(=O)O)c(NCc2ccco2)cc1Cl [FUR, Furosemide]
- SP (acid phosphatase) (Male Wistar rats [1]): −9.1%
- polymorphs (polymorphonuclear granulocytes) (Male Wistar rats [2]): +65.7%
